# Measurements as given in patent US6339104B1, “Therapeutic agent for primary biliary cirrhosis” (The City of Osaka, priority 1998, dated 2002).
# Entries after “also recorded” stand apart in the source; their conditions may differ. At least one compound was matched to its structure with a doubt left.
# System: patient with primary biliary cirrhosis (stage IV in Scheuer classification)
# Experiment: Clinical effect of oral L-alanine in a patient with terminal-stage primary biliary cirrhosis
# Type: in vivo, human
# Conditions: L-alanine 18 g/day orally; ursodeoxycholic acid 600 mg/day orally
# Method: The clinical effect of L-alanine was examined in a patient with primary biliary cirrhosis. The patient was suffering from primary biliary cirrhosis in the terminal stages (stage IV in Scheuer classification). After their symptoms had appeared, 600 mg/day of ursodeoxycholic acid was orally administered as a therapeutic agent everyday. However, this treatment became ineffective and the results of biochemical tests also became worse. Under these conditions, 18 g/day of L-alanine was orally administered to the patient in three doses every day for two months. Before and after the administration of L-alanine, two weeks in total of the observation period was taken, and then eight weeks of the administration period was taken. The blood specimen was taken once a week to determine total serum bilirubin and transaminase (AST). By the administration of L-alanine, total serum bilirubin and transaminase were reduced. […] As the administration was finished, increase of both total serum bilirubin and transaminase was observed.
structure (smiles),measurement,value
"C[C@H](CCC(=O)O)[C@H]1CC[C@H]2[C@@H]3[C@@H](O)C[C@@H]4C[C@H](O)CC[C@]4(C)[C@H]3CC[C@]12C [ursodeoxycholic acid, reference compound]",therapeutic effect on the terminal case of primary biliary cirrhosis (symptoms),ineffective; also recorded: not improved
